Measured values reported in publication doi:10.1101/2022.10.10.511527.
Results are given in words; binding and its absence hold for the method and conditions named. Binding seen in cells or lysates may run through a third protein. Some entries that bind do so weakly or less than the wild type. Tags and fused reporters may be left off the sequences shown.

Amino acid sequences for entries named in this document (tags omitted). A change or cut given only in a name is not applied to a line headed by its entry.
UniProt Q9D4H8, whole entry: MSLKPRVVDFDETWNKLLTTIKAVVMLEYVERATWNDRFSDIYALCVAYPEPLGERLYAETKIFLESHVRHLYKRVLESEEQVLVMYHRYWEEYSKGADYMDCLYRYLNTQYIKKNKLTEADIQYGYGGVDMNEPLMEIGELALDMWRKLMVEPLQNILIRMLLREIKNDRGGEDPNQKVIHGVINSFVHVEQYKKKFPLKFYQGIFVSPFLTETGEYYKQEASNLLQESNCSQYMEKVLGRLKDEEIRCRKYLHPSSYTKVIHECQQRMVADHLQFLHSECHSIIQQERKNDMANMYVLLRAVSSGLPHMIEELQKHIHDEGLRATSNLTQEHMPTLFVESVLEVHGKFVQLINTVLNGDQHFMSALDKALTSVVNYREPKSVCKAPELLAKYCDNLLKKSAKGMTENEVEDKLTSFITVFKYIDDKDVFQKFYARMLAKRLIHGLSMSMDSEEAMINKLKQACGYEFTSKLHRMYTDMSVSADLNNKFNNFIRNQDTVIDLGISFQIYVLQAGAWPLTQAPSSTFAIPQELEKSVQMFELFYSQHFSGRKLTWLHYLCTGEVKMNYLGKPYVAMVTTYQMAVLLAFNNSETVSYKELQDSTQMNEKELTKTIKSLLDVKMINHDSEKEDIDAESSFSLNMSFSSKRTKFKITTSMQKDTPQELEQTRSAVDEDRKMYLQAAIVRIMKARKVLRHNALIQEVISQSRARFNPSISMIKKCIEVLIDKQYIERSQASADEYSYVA

Experiments:
[1] = molecular target: T1, HA/FLAG-PRAMEL7WT, one transgene copy in the Rosa26 locus of mouse ESCs (ESC+H/F-Pramel7WT) (mouse) (UniProt Q810Y8); assay: co-IP
T1 sequence: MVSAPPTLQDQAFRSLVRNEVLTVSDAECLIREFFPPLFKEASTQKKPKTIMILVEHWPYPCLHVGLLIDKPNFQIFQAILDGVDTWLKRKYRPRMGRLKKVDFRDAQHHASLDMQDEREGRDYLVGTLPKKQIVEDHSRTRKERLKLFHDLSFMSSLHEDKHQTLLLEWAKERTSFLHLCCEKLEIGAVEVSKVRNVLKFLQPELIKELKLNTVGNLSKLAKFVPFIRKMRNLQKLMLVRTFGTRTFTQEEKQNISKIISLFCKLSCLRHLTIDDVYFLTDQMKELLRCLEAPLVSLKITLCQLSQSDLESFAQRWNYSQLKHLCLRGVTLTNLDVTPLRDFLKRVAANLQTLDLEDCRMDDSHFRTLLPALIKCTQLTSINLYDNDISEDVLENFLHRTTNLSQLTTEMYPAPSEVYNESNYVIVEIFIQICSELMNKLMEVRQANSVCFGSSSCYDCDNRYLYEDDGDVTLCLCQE

[2] = molecular target: T2, HA/FLAG-PRAMEL7ΔN, one transgene copy in the Rosa26 locus of mouse ESCs (ESC+H/F-Pramel7ΔN) (mouse) (UniProt Q810Y8); assay: co-IP
T2 sequence: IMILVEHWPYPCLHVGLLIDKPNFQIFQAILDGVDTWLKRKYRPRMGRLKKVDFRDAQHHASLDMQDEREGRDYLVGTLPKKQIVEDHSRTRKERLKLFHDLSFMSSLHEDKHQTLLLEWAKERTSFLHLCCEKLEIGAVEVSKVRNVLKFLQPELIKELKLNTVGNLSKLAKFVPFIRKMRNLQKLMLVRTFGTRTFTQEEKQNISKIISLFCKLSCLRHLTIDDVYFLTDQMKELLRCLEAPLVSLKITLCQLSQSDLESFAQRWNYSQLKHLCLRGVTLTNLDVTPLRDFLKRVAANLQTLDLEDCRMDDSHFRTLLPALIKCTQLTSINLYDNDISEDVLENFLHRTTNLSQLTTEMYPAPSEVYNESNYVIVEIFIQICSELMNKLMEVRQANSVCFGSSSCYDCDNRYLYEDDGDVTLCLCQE

Substance: Cullin2 (CUL2), endogenous in mouse ESCs (from UniProt Q9D4H8 1-745)
- binding [1]: binds
- binding [2]: no binding
